To fix the notation:
B1: DENND3, endogenous in RPTEC/TERT1 cells (protein, UniProt A2RUS2 1-1198)
chain: MRSLRKKREKPRPEQWKGLPGPPRAPEPEDVAVPGGVDLLTLPQLCFPGGVCVATEPKEDCVHFLVLTDVCGNRTYGVVAQYYRPLHDEYCFYNGKTHRECPGCFVPFAVCVVSRFPYYNSLKDCLSCLLALLKPCKDFEVDSHIKDFAAKLSLIPSPPPGPLHLVFNMKSLQIVLPARADPESPILDLDLHLPLLCFRPEKVLQILTCILTEQRIVFFSSDWALLTLVTECFMAYLYPLQWQHPFVPILSDQMLDFVMAPTSFLMGCHLDHFEEVSKEADGLVLINIDHGSITYSKSTDDNVDIPDVPLLAAQTFIQRVQSLQLHHELHAAHLLSSTDLKEGRAHRRSWQQKLNCQIQQTTLQLLVSIFRDVKNHLNYEHRVFNSEEFLKTRAPGDHQFYKQVLDTYMFHSFLKARLNRRMDAFAQMDLDTQSEEDRINGMLLSPRRPTVEKRASRKSSHLHVTHRRMVVSMPNLQDIAMPELAPRNSSLRLTDTAGCRGSSAVLNVTPKSPYTFKIPEIHFPLESKCVQAYHAHFVSMLSEAMCFLAPDNSLLLARYLYLRGLVYLMQGQLLNALLDFQNLYKTDIRIFPTDLVKRTVESMSAPEWEGAEQAPELMRLISEILDKPHEASKLDDHVKKFKLPKKHMQLGDFMKRVQESGIVKDASIIHRLFEALTVGQEKQIDPETFKDFYNCWKETEAEAQEVSLPWLVMEHLDKNECVCKLSSSVKTNLGVGKIAMTQKRLFLLTEGRPGYLEISTFRNIEEVRRTTTTFLLRRIPTLKIRVASKKEVFEANLKTECDLWHLMVKEMWAGKKLADDHKDPHYVQQALTNVLLMDAVVGTLQSPGAIYAASKLSYFDKMSNEMPMTLPETTLETLKHKINPSAGEAFPQAVDVLLYTPGHLDPAEKVEDAHPKLWCALSEGKVTVFNASSWTIHQHSFKVGTAKVNCMVMADQNQVWVGSEDSVIYIINVHSMSCNKQLTAHCSSVTDLIVQDGQEAPSNVYSCSMDGMVLVWNVSTLQVTSRFQLPRGGLTSIRLHGGRLWCCTGNSIMVMKMNGSLHQELKIEENFKDTSTSFLAFQLLPEEEQLWAACAGRSEVYIWSLKDLAQPPQRVPLEDCSEINCMIRVKKQVWVGSRGLGQGTPKGKIYVIDAERKTVEKELVAHMDTVRTLCSAEDRYVLSGSGREEGKVAIWKGE
B2: ClC-5 V523Δ, stably expressed in RPTEC/TERT1 cells depleted of endogenous CLCN5 (protein, UniProt P51795-1 1-746)
chain: MDFLEEPIPGVGTYDDFNTIDWVREKSRDRDRHREITNKSKESTWALIHSVSDAFSGWLLMLLIGLLSGSLAGLIDISAHWMTDLKEGICTGGFWFNHEHCCWNSEHVTFEERDKCPEWNSWSQLIISTDEGAFAYIVNYFMYVLWALLFAFLAVSLVKVFAPYACGSGIPEIKTILSGFIIRGYLGKWTLVIKTITLVLAVSSGLSLGKEGPLVHVACCCGNILCHCFNKYRKNEAKRREVLSAAAAAGVSVAFGAPIGGVLFSLEEVSYYFPLKTLWRSFFAALVAAFTLRSINPFGNSRLVLFYVEFHTPWHLFELVPFILLGIFGGLWGALFIRTNIAWCRKRKTTQLGKYPVIEVLVVTAITAILAFPNEYTRMSTSELISELFNDCGLLDSSKLCDYENRFNTSKGGELPDRPAGVGVYSAMWQLALTLILKIVITIFTFGMKIPSGLFIPSMAVGAIAGRLLGVGMEQLAYYHQEWTVFNSWCSQGADCITPGLYAMVGAAACLGGVTRMTVSLVIMFELTGGLEYIVPLMAAAMTSKWVADALGREGIYDAHIRLNGYPFLEAKEEFAHKTLAMDVMKPRRNDPLLTVLTQDSMTVEDVETIISETTYSGFPVVVSRESQRLVGFVLRRDLIISIENARKKQDGVVSTSIIYFTEHSPPLPPYTPPTLKLRNILDLSPFTVTDLTPMEIVVDIFRKLGLRQCLVTHNGRLLGIITKKDVLKHIAQMANQDPDSILFN
B3: GALNT1, endogenous in RPTEC/TERT1 cells (enzyme, UniProt Q10472 1-559)
chain: MRKFAYCKVVLATSLIWVLLDMFLLLYFSECNKCDEKKERGLPAGDVLEPVQKPHEGPGEMGKPVVIPKEDQEKMKEMFKINQFNLMASEMIALNRSLPDVRLEGCKTKVYPDNLPTTSVVIVFHNEAWSTLLRTVHSVINRSPRHMIEEIVLVDDASERDFLKRPLESYVKKLKVPVHVIRMEQRSGLIRARLKGAAVSKGQVITFLDAHCECTVGWLEPLLARIKHDRRTVVCPIIDVISDDTFEYMAGSDMTYGGFNWKLNFRWYPVPQREMDRRKGDRTLPVRTPTMAGGLFSIDRDYFQEIGTYDAGMDIWGGENLEISFRIWQCGGTLEIVTCSHVGHVFRKATPYTFPGGTGQIINKNNRRLAEVWMDEFKNFFYIISPGVTKVDYGDISSRVGLRHKLQCKPFSWYLENIYPDSQIPRHYFSLGEIRNVETNQCLDNMARKENEKVGIFNCHGMGGNQVFSYTANKEIRTDDLCLDVSKLNGPVTMLKCHHLKGNQLWEYDPVKLTLQHVNSNQCLDKATEEDSQVPSIRDCNGSRSQQWLLRNVTLPEIF
B4: FUT8, endogenous in RPTEC/TERT1 cells (enzyme, UniProt Q9BYC5 1-575)
chain: MRPWTGSWRWIMLILFAWGTLLFYIGGHLVRDNDHPDHSSRELSKILAKLERLKQQNEDLRRMAESLRIPEGPIDQGPAIGRVRVLEEQLVKAKEQIENYKKQTRNGLGKDHEILRRRIENGAKELWFFLQSELKKLKNLEGNELQRHADEFLLDLGHHERSIMTDLYYLSQTDGAGDWREKEAKDLTELVQRRITYLQNPKDCSKAKKLVCNINKGCGYGCQLHHVVYCFMIAYGTQRTLILESQNWRYATGGWETVFRPVSETCTDRSGISTGHWSGEVKDKNVQVVELPIVDSLHPRPPYLPLAVPEDLADRLVRVHGDPAVWWVSQFVKYLIRPQPWLEKEIEEATKKLGFKHPVIGVHVRRTDKVGTEAAFHPIEEYMVHVEEHFQLLARRMQVDKKRVYLATDDPSLLKEAKTKYPNYEFISDNSISWSAGLHNRYTENSLRGVILDIHFLSQADFLVCTFSSQVCRVAYEIMQTLHPDASANFHSLDDIYYFGGQNAHNQIAIYAHQPRTADEIPMEPGDIIGVAGNHWDGYSKGVNRKLGRTGLYPSYKVREKIETVKYPTYPEAEK
B5: DDOST, endogenous in RPTEC/TERT1 cells (protein, UniProt P39656 43-456)
chain: SGPRTLVLLDNLNVRETHSLFFRSLKDRGFELTFKTADDPSLSLIKYGEFLYDNLIIFSPSVEDFGGNINVETISAFIDGGGSVLVAASSDIGDPLRELGSECGIEFDEEKTAVIDHHNYDISDLGQHTLIVADTENLLKAPTIVGKSSLNPILFRGVGMVADPDNPLVLDILTGSSTSYSFFPDKPITQYPHAVGKNTLLIAGLQARNNARVIFSGSLDFFSDSFFNSAVQKAAPGSQRYSQTGNYELAVALSRWVFKEEGVLRVGPVSHHRVGETAPPNAYTVTDLVEYSIVIQQLSNGKWVPFDGDDIQLEFVRIDPFVRTFLKKKGGKYSVQFKLPDVYGVFQFKVDYNRLGYTHLYSSTQVSVRPLQHTQYERFIPSAYPYYASAFSMMLGLFIFSIVFLHMKEKEKSD
B6: ClC-5 WT (Cl-/H+ antiporter ClC-5), stably expressed in RPTEC/TERT1 cells depleted of endogenous CLCN5 (protein, UniProt P51795-1 1-746)
chain: MDFLEEPIPGVGTYDDFNTIDWVREKSRDRDRHREITNKSKESTWALIHSVSDAFSGWLLMLLIGLLSGSLAGLIDISAHWMTDLKEGICTGGFWFNHEHCCWNSEHVTFEERDKCPEWNSWSQLIISTDEGAFAYIVNYFMYVLWALLFAFLAVSLVKVFAPYACGSGIPEIKTILSGFIIRGYLGKWTLVIKTITLVLAVSSGLSLGKEGPLVHVACCCGNILCHCFNKYRKNEAKRREVLSAAAAAGVSVAFGAPIGGVLFSLEEVSYYFPLKTLWRSFFAALVAAFTLRSINPFGNSRLVLFYVEFHTPWHLFELVPFILLGIFGGLWGALFIRTNIAWCRKRKTTQLGKYPVIEVLVVTAITAILAFPNEYTRMSTSELISELFNDCGLLDSSKLCDYENRFNTSKGGELPDRPAGVGVYSAMWQLALTLILKIVITIFTFGMKIPSGLFIPSMAVGAIAGRLLGVGMEQLAYYHQEWTVFNSWCSQGADCITPGLYAMVGAAACLGGVTRMTVSLVVIMFELTGGLEYIVPLMAAAMTSKWVADALGREGIYDAHIRLNGYPFLEAKEEFAHKTLAMDVMKPRRNDPLLTVLTQDSMTVEDVETIISETTYSGFPVVVSRESQRLVGFVLRRDLIISIENARKKQDGVVSTSIIYFTEHSPPLPPYTPPTLKLRNILDLSPFTVTDLTPMEIVVDIFRKLGLRQCLVTHNGRLLGIITKKDVLKHIAQMANQDPDSILFN

No constants are given. Whether binding was seen depends on the method and setting. In cells and extracts the contact can be indirect. These calls come from enrichment with a bait or labelling near it, and not all partners need be listed.

The target of the first assay is T1, ClC-5 V523Δ, stably expressed in RPTEC/TERT1 cells depleted of endogenous CLCN5 (human) (UniProt P51795).
T1 sequence: B2 chain
The assay can be described thus: affinity purification with mass spectrometry.
Consider B1, for which the binding result is “binds”.

On to B2, for which the binding entry is reported as “binds”.

For the next assay, the target named is T2, ClC-5 WT (Cl-/H+ antiporter ClC-5), stably expressed in RPTEC/TERT1 cells depleted of endogenous CLCN5 (human) (UniProt P51795).
T2 sequence: B6 chain
The assay can be described thus: affinity purification with mass spectrometry.
In the case of B3, the binding result is given as “binds”. In the case of B4, the binding entry is given as “binds”.

For the molecule B5, the binding result is recorded as “binds”. Regarding B6, the binding entry is reported as “binds”.

Source of the values: publication doi:10.1101/2025.11.03.686312.
